{
  "source": "patent EP0155104A2",
  "about": "“Free analyte assay” (priority 1984, dated 1985)",
  "tested_on": "serum proteins",
  "assay": "Amerlex free T4 radioimmunoassay: Bo value with added blocking agent",
  "type": "binding",
  "conditions": "10^-2 and 10^-3M; conclusion from Table 9",
  "note": "Some results were stated once for a whole list of compounds, not compound by compound.",
  "data": [
    {"molecule": "O=[N+]([O-])c1ccc(O)c([N+](=O)[O-])c1", "note": "[2,4-dinitrophenol]", "values": [
      {"measurement": "value as differential blocking agent in the FT4 assay", "result": "neither gamma-resorcylic acid, salicylamide nor 2,4-dinitrophenol are of value as differential blocking agents"}
    ]}
  ]
}
